# Test results taken from patent US20210147812A1, “Method of Preparing Cancer Spheroid and Method of Selecting Colorectal Cancer Patient” (Kyo Diagnostics K.K., priority 2017, published 2021).
# At least one structure is not confirmed: it was looked up by name or label, or the drawing left a doubt.
# Tested on: CRC spheroids (HC18T, HC21T, and HC52T)
# Experiment: Morphology of spheroids after treatment with cAMP-signaling activators (phase-contrast micrographs)
# Type: cell-based, human
# Details: 10 μM CV1808, 1 μM NECA, or 1 μM forskolin for five days
structure (smiles),measurement,value
C=C[C@@]1(C)CC(=O)[C@]2(O)[C@@]3(C)[C@@H](O)CCC(C)(C)[C@@H]3[C@H](O)[C@H](OC(C)=O)[C@@]2(C)O1 [forskolin],morphological changes in spheroids,increased sizes
